Reference: the supplement of paper PMC10331698
± gives the standard deviation of the averaged measurements. Most values lie at the level of the controls, where differences are scatter.

Experiments:
Assay in all cases: level (log10 ratio to DMSO vehicle control); higher = higher biomarker level / cell amount than vehicle control
[1] = compound: O=C(O)C(F)(F)C(F)(F)C(F)(F)C(F)(F)C(F)(F)C(F)(F)C(F)(F)C(F)(F)C(F)(F)F [Perfluorodecanoic acid]; conditions: in DMSO
Procedure: (§1)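 BioMAP Diversity Plus panel of 12 human primary cell co-culture systems (3C, 4H, LPS, SAg, BT, BF4T, BE3C, CASM3C, HDF3CGF, KF3CT, MyoF, Mphg). Compounds were added 1 h before stimulation and left for 24 h (MyoF 48 h; BT 72 h for soluble read-outs or 6 d for IgG). Biomarkers were read by ELISA, cytotoxicity by SRB, PBMC viability and proliferation by Alamar Blue. Each well value was divided by the mean of 8 DMSO control wells on the same plate and log10 transformed; duplicate blinded samples were tested at 4 concentrations.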

[2] = compound: N=C(N)C(F)(F)C(F)(F)C(F)(F)C(F)(F)C(F)(F)C(F)(F)C(F)(F)F [Perfluorooctanamidine]; conditions: in DMSO
Procedure: as §1

[3] = compound: OCC(F)(F)OC(F)(F)C(F)(F)OC(F)(F)C(F)(F)OC(F)(F)CO [1H,1H,11H,11H-Perfluorotetraethylene glycol]; conditions: 2200 nM; in DMSO
Procedure: as §1

[4] = compound: O=C(O)C(F)(F)OC(F)(F)C(F)(F)OC(F)(F)C(F)(F)OC(F)(F)C(F)(F)C(F)(F)C(F)(F)F [Perfluoro-3,6,9-trioxatridecanoic acid]; conditions: 2200 nM; in DMSO
Procedure: as §1

[5] = compound: O=C(CC(=O)C(F)(F)C(F)(F)C(F)(F)F)c1cccs1 [(Perfluorobutyryl)-2-thenoylmethane]; conditions: 2200 nM; in DMSO
Procedure: as §1

[6] = compound: O=C(O)C(F)(F)OC(F)(F)C(F)(F)OC(F)(F)F [Perfluoro-3,6-dioxaheptanoic acid]; conditions: 2200 nM; in DMSO
Procedure: as §1

[7] = compound: O=C(O)C(F)(F)C(F)(F)C(F)(F)C(F)(F)C(F)(F)C(F)(F)C(F)(F)F [Ammonium perfluorooctanoate]; conditions: 2200 nM; in DMSO
Procedure: as §1

[8] = compound: CCOC(=O)CC(=O)C(F)(F)C(F)(F)F [Ethyl pentafluoropropionyl acetate]; conditions: 2200 nM; in DMSO
Procedure: as §1

[9] = compound: O=C(O)CCC(F)(C(F)(F)F)C(F)(F)F [4,4-bis(Trifluoromethyl)-4-fluoropropanoic acid]; conditions: 2200 nM; in DMSO
Procedure: as §1

[10] = compound: O=C(O)C(F)(F)C(F)(F)C(F)(F)C(F)(F)C(F)(F)C(F)(F)C(F)(F)C(F)(F)F [Perfluorononanoic acid]; conditions: 2200 nM; in DMSO
Procedure: as §1

[11] = compound: OCC(F)(F)C(F)(F)C(F)(F)C(F)(F)C(F)(F)C(F)(F)C(F)(F)C(F)(F)CO [1H,1H,10H,10H-Perfluorodecane-1,10-diol]; conditions: 2200 nM; in DMSO
Procedure: as §1

[12] = compound: C=CC(=O)OCC(F)(F)C(F)(F)C(F)(F)C(F)(F)C(F)(F)C(F)(F)C(F)(F)C(F)F [1H,1H,9H-Perfluorononyl acrylate]; conditions: 2200 nM; in DMSO
Procedure: as §1

[13] = compound: FC(F)(F)C(F)(F)C(F)(F)C(F)(F)C(F)(F)C(F)(F)C(F)(F)C(F)(F)CCS [2-(Perfluorooctyl)ethanthiol]; conditions: in DMSO
Procedure: as §1

[14] = compound: O=C(O)C(F)(F)C(F)(F)C(F)(F)C(F)(F)C(F)(F)C(F)(F)C(F)(F)F [Perfluorooctanoic acid]; conditions: 2200 nM; in DMSO
Procedure: as §1

Row | Test System | level (log10) ([1]; 2200 nM) | level (log10) ([1]; 6700 nM) | level (log10) ([1]; 20000 nM) | level (log10) ([2]; 2200 nM) | level (log10) ([2]; 6700 nM) | level (log10) ([2]; 20000 nM) | level (log10) ([2]; 60000 nM) | level (log10) [3] | level (log10) [4] | level (log10) [5] | level (log10) [6] | level (log10) [7] | level (log10) [8] | level (log10) [9] | level (log10) [10] | level (log10) [11] | level (log10) [12] | level (log10) ([13]; 740 nM) | level (log10) ([13]; 2200 nM) | level (log10) [14]
1 | SAg:PBMC Cytotoxicity | 0.0485 ± 0.0035 | 0.032 ± 0.0028 | 0.0625 ± 0.061 | 0.0425 ± 0.057 | 0.011 ± 0.021 | 0.003 ± 0.016 | -0.263 | -0.0035 ± 0.073 | 0.0005 ± 0.011 | 0.001 ± 0.023 | 0.0135 ± 0.054 | 0.004 ± 0.062 | -0.0045 ± 0.054 | 0.004 ± 0.037 | 0.002 ± 0.044 | 0.0015 ± 0.015 | -0.012 ± 0.025 | 0.009 ± 0.0014 | -0.005 ± 0.024 | 0.01 ± 0.024
2 | LPS:CXCL8/IL-8 | 0.019 ± 0.0071 | 0.027 ± 0.0071 | 0.0115 ± 0.0064 | -0.003 ± 0.05 | -0.019 ± 0.027 | -0.005 ± 0.016 | -0.028 | -0.0015 ± 0.029 | 0.008 ± 0.0057 | -0.0065 ± 0.042 | 0.006 ± 0.02 | 0.0115 ± 0.036 | -0.0115 ± 0.018 | 0.0535 ± 0.00071 | 0.002 ± 0.0057 | 0.0105 ± 0.033 | 0.0075 ± 0.028 | -0.032 ± 0.051 | -0.025 ± 0.023 | 0.027 ± 0.061
3 | KF3CT:TIMP-2 | -0.034 ± 0.034 | 0.003 ± 0.03 | -0.051 ± 0.034 | -0.004 ± 0.0071 | 0.01 ± 0.0014 | 0 ± 0.02 | 0.035 | 0.0135 ± 0.032 | 0.01 ± 0.023 | 0.0005 ± 0.013 | -0.05 ± 0.079 | 0.0015 ± 0.016 | 0.001 ± 0.048 | -0.0165 ± 0.033 | -0.0395 ± 0.025 | -0.004 ± 0.025 | -0.0105 ± 0.044 | -0.021 ± 0.0042 | 0.002 ± 0.047 | 0.007 ± 0.028
4 | 4H:CCL2/MCP-1 | 0 ± 0.011 | -0.014 ± 0.0057 | -0.0255 ± 0.03 | 0.0185 ± 0.0064 | 0.0095 ± 0.011 | -0.0055 ± 0.0064 | 0.061 | 0.0135 ± 0.07 | 0.007 ± 0.0085 | -0.005 ± 0.011 | 0.0125 ± 0.037 | 0.005 ± 0.0099 | 0.007 ± 0.035 | 0.0275 ± 0.054 | 0.0075 ± 0.061 | -0.0055 ± 0.098 | -0.015 ± 0.025 | 0.002 ± 0.035 | -0.016 ± 0.0014 | 0.009 ± 0.054
5 | BF4T:tPA | 0.0125 ± 0.011 | -0.0185 ± 0.005 | -0.18 ± 0.097 | 0.041 ± 0.024 | 0.004 ± 0.014 | -0.027 ± 0.069 | 0.028 | 0.0055 ± 0.042 | -0.0265 ± 0.049 | -0.07 ± 0.041 | -0.018 ± 0.062 | 0.006 ± 0.031 | -0.0085 ± 0.0078 | 0.001 ± 0.068 | -0.048 ± 0.0028 | -0.0245 ± 0.026 | -0.0175 ± 0.021 | -0.0175 ± 0.023 | -0.0315 ± 0.0035 | -0.03 ± 0.072
6 | KF3CT:CXCL10/IP-10 | -0.008 ± 0.0042 | -0.044 ± 0.017 | -0.134 ± 0.028 | 0.0165 ± 0.026 | 0.012 ± 0.042 | 0.0025 ± 0.04 | 0.04 | 0.0065 ± 0.0064 | 0.0285 ± 0.037 | -0.0085 ± 0.005 | 0.004 ± 0.0085 | 0.0025 ± 0.0092 | 0.0045 ± 0.00071 | -0.004 ± 0.0057 | -0.028 ± 0.018 | 0.006 ± 0.017 | -0.0015 ± 0.013 | -0.006 ± 0.018 | -0.0115 ± 0.0092 | -0.0065 ± 0.0021
7 | lMphg:SRB-Mphg | 0.0095 ± 0.019 | 0.0065 ± 0.00071 | -0.005 ± 0.0085 | 0.017 ± 0.014 | 0.0145 ± 0.011 | 0.009 ± 0.014 | 0.007 | 0.0085 ± 0.019 | 0.008 ± 0.024 | -0.0015 ± 0.035 | 0.0125 ± 0.039 | 0.003 ± 0.0042 | 0.0005 ± 0.0064 | 0.0255 ± 0.0021 | -0.0125 ± 0.049 | 0.018 ± 0.061 | 0.0125 ± 0.05 | 0.011 ± 0.05 | 0.0035 ± 0.026 | 0.0135 ± 0.026
8 | BT:sIL-2 | -0.0145 ± 0.071 | 0.008 ± 0.092 | 0.118 ± 0.013 | 0.0675 ± 0.036 | 0.0225 ± 0.057 | -0.01 ± 0.031 | -0.002 | 0.044 ± 0.014 | -0.043 ± 0.0085 | 0.0145 ± 0.043 | 0.0125 ± 0.035 | -0.013 ± 0.11 | -0.029 ± 0.12 | 0.0675 ± 0.005 | -0.032 ± 0.071 | -0.0025 ± 0.044 | 0.0645 ± 0.091 | 0.0075 ± 0.054 | -0.0275 ± 0.0078 | 0.1125 ± 0.00071
9 | SAg:CD40 | -0.0015 ± 0.012 | -0.0095 ± 0.021 | -0.0305 ± 0.012 | -0.021 ± 0.018 | -0.0055 ± 0.0021 | 0.014 ± 0.023 | -0.093 | -0.013 ± 0.0085 | -0.0135 ± 0.025 | -0.0355 ± 0.0021 | -0.0565 ± 0.035 | 0.0005 ± 0.00071 | -0.004 ± 0.016 | -0.0555 ± 0.067 | -0.0685 ± 0.036 | -0.0245 ± 0.019 | -0.0255 ± 0.047 | -0.0245 ± 0.05 | 0.0185 ± 0.0021 | 0.003 ± 0.017
10 | 3C:HLA-DR | 0.0085 ± 0.013 | -0.0035 ± 0.0021 | -0.006 ± 0.013 | 0.0215 ± 0.015 | 0.0025 ± 0.016 | -0.0295 ± 0.0064 | -0.035 | 0.0035 ± 0.036 | -0.0065 ± 0.036 | -0.021 ± 0.02 | -0.01 ± 0.0085 | 0.0105 ± 0.016 | 0.0155 ± 0.018 | -0.004 ± 0.027 | -0.0095 ± 0.016 | -0.001 | -0.0015 ± 0.016 | -0.013 ± 0.0057 | -0.0075 ± 0.0021 | 0.003
11 | CASM3C:CD142/Tissue Factor | 0.0145 ± 0.0078 | 0.008 ± 0.0042 | -0.0055 ± 0.012 | 0.002 ± 0.078 | -0.022 ± 0.024 | -0.033 ± 0.0014 | 0.042 | -0.0215 ± 0.015 | 0.022 ± 0.018 | -0.0385 ± 0.064 | 0.0165 ± 0.012 | -0.003 ± 0.014 | -0.041 ± 0.014 | -0.0145 ± 0.061 | -0.065 ± 0.024 | -0.005 ± 0.041 | 0.028 ± 0.076 | -0.0675 ± 0.1 | -0.0755 ± 0.071 | -0.0245 ± 0.025
12 | 3C:CXCL8/IL-8 | 0.0225 ± 0.0078 | 0.009 ± 0.013 | 0.0155 ± 0.021 | 0.028 ± 0.027 | 0.018 ± 0.011 | 0.022 ± 0.0085 | 0.08 | 0.025 ± 0.037 | -0.0065 ± 0.019 | 0.007 ± 0.018 | 0.0435 ± 0.0078 | 0.0045 ± 0.0021 | 0.001 ± 0.014 | 0.0315 ± 0.029 | 0.05 ± 0.033 | 0.018 ± 0.071 | 0.008 ± 0.013 | 0.0475 ± 0.097 | 0.0175 ± 0.047 | 0.054 ± 0.02

3 entries from above, as a markdown table.

| Row | Test System | level (log10) ([1]; 2200 nM) | level (log10) ([1]; 6700 nM) | level (log10) ([1]; 20000 nM) | level (log10) ([2]; 2200 nM) | level (log10) ([2]; 6700 nM) | level (log10) ([2]; 20000 nM) | level (log10) ([2]; 60000 nM) | level (log10) [3] | level (log10) [4] | level (log10) [5] | level (log10) [6] | level (log10) [7] | level (log10) [8] | level (log10) [9] | level (log10) [10] | level (log10) [11] | level (log10) [12] | level (log10) ([13]; 740 nM) | level (log10) ([13]; 2200 nM) | level (log10) [14] |
| --- | --- | --- | --- | --- | --- | --- | --- | --- | --- | --- | --- | --- | --- | --- | --- | --- | --- | --- | --- | --- | --- |
| 1 | SAg:PBMC Cytotoxicity | 0.0485 ± 0.0035 | 0.032 ± 0.0028 | 0.0625 ± 0.061 | 0.0425 ± 0.057 | 0.011 ± 0.021 | 0.003 ± 0.016 | -0.263 | -0.0035 ± 0.073 | 0.0005 ± 0.011 | 0.001 ± 0.023 | 0.0135 ± 0.054 | 0.004 ± 0.062 | -0.0045 ± 0.054 | 0.004 ± 0.037 | 0.002 ± 0.044 | 0.0015 ± 0.015 | -0.012 ± 0.025 | 0.009 ± 0.0014 | -0.005 ± 0.024 | 0.01 ± 0.024 |
| 2 | LPS:CXCL8/IL-8 | 0.019 ± 0.0071 | 0.027 ± 0.0071 | 0.0115 ± 0.0064 | -0.003 ± 0.05 | -0.019 ± 0.027 | -0.005 ± 0.016 | -0.028 | -0.0015 ± 0.029 | 0.008 ± 0.0057 | -0.0065 ± 0.042 | 0.006 ± 0.02 | 0.0115 ± 0.036 | -0.0115 ± 0.018 | 0.0535 ± 0.00071 | 0.002 ± 0.0057 | 0.0105 ± 0.033 | 0.0075 ± 0.028 | -0.032 ± 0.051 | -0.025 ± 0.023 | 0.027 ± 0.061 |
| 3 | KF3CT:TIMP-2 | -0.034 ± 0.034 | 0.003 ± 0.03 | -0.051 ± 0.034 | -0.004 ± 0.0071 | 0.01 ± 0.0014 | 0 ± 0.02 | 0.035 | 0.0135 ± 0.032 | 0.01 ± 0.023 | 0.0005 ± 0.013 | -0.05 ± 0.079 | 0.0015 ± 0.016 | 0.001 ± 0.048 | -0.0165 ± 0.033 | -0.0395 ± 0.025 | -0.004 ± 0.025 | -0.0105 ± 0.044 | -0.021 ± 0.0042 | 0.002 ± 0.047 | 0.007 ± 0.028 |
